1 molecule from patent US6379959 can be followed below.

For the assay, the target named is carboxypeptidase A. The assay can be described thus: inhibition of carboxypeptidase A activity by RITC-labeled PCI.

These are yes or no findings as the source states them, for the method shown. Binding calls can cover weak binding; strength is not graded here.

EQHADPICNKPCKTHDDCSGAWFCQACWNSARTCGPYVG [potato carboxypeptidase inhibitor, isoform IIa, recombinant]: the binding entry was “binds”.
